# Reference: the supplement of paper PMC10849652
# Protein sequences, listed by entry. Tags and fused reporters are not part of them. Lines headed by an entry give the natural chain unless they say otherwise; changes in a name come on top.
# UniProt Q8WTS1: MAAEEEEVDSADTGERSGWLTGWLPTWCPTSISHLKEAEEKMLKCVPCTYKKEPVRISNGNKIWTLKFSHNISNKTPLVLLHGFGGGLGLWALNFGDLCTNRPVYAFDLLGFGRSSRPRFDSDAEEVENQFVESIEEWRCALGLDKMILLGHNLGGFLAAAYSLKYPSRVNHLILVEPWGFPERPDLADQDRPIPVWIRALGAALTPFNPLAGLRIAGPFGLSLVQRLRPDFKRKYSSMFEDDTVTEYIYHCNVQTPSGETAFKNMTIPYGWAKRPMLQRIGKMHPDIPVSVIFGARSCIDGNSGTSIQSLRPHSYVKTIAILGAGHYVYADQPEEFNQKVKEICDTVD
# UniProt P09110: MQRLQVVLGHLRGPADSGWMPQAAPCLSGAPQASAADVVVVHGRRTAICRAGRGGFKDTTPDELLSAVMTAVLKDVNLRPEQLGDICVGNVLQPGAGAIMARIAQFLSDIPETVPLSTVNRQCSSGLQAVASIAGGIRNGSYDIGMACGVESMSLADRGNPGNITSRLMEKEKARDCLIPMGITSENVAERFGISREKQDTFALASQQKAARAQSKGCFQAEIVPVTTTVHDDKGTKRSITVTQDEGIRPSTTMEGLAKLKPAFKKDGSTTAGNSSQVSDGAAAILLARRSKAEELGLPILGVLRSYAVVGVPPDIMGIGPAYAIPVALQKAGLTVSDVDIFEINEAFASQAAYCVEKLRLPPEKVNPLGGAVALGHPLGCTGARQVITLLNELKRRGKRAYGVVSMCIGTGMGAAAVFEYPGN
# UniProt O96019, whole entry, looked up: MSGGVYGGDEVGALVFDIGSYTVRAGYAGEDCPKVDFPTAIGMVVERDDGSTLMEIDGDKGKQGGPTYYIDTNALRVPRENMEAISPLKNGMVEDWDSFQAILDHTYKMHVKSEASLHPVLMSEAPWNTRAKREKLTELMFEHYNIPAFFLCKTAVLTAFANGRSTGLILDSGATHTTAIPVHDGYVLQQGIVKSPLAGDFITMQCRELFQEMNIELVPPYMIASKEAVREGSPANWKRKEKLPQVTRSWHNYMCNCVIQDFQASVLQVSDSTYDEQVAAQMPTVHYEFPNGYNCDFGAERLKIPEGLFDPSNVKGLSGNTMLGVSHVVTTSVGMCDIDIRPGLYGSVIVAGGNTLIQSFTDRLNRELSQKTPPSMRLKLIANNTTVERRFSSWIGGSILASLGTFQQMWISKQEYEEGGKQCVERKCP
# UniProt Q9NRN7: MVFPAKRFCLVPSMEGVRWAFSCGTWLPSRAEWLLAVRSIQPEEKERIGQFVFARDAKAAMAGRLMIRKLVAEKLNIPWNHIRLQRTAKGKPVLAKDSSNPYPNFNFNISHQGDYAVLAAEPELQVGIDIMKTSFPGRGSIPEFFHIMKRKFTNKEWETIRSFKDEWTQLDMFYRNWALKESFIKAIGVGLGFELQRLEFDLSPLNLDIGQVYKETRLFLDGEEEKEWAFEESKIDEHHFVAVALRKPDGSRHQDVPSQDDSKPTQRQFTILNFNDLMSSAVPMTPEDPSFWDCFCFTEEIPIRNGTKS
# UniProt O14734: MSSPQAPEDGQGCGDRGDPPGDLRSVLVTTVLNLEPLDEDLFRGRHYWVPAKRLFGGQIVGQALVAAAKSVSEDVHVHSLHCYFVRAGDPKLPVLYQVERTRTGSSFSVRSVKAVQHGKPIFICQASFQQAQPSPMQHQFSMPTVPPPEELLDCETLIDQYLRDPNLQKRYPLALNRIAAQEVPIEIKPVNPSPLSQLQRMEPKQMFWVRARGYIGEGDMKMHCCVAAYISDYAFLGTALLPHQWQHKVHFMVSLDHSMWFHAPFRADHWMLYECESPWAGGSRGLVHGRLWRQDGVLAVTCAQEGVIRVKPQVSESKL
# UniProt Q8NE71: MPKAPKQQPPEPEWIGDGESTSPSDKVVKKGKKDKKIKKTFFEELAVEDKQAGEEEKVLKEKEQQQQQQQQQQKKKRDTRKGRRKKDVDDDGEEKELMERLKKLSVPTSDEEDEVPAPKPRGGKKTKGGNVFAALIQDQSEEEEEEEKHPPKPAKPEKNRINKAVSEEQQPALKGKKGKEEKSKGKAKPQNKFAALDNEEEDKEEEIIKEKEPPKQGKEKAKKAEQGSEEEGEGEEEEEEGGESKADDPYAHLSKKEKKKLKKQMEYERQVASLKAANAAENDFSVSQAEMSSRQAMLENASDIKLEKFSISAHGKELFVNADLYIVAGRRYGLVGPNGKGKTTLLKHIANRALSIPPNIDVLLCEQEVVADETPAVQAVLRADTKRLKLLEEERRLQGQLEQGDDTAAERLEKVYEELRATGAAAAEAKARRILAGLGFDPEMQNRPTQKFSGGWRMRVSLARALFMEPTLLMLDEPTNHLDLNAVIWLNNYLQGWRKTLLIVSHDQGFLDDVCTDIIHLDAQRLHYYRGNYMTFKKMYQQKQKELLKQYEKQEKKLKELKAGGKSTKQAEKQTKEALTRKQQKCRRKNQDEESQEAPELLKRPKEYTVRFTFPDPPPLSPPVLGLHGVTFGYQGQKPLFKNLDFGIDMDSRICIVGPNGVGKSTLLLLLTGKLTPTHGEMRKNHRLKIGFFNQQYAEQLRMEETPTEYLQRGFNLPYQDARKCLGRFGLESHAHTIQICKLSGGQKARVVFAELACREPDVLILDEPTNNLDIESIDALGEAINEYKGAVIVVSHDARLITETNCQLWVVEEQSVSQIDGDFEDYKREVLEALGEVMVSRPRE
# UniProt Q9H7C9: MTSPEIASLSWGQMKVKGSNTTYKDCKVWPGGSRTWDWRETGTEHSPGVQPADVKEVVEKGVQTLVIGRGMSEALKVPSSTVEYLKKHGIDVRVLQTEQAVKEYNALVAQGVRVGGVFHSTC
# UniProt Q03154: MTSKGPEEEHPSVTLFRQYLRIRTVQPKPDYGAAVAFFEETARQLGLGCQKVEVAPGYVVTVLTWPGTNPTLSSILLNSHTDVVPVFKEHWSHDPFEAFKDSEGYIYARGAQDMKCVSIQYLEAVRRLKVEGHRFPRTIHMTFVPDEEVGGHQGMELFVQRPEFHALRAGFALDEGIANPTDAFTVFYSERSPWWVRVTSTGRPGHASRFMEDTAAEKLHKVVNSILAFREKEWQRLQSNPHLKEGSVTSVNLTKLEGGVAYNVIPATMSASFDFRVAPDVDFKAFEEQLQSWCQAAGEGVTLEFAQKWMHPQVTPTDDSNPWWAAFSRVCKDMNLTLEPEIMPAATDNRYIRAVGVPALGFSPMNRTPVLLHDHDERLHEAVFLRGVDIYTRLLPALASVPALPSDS
# UniProt Q15067: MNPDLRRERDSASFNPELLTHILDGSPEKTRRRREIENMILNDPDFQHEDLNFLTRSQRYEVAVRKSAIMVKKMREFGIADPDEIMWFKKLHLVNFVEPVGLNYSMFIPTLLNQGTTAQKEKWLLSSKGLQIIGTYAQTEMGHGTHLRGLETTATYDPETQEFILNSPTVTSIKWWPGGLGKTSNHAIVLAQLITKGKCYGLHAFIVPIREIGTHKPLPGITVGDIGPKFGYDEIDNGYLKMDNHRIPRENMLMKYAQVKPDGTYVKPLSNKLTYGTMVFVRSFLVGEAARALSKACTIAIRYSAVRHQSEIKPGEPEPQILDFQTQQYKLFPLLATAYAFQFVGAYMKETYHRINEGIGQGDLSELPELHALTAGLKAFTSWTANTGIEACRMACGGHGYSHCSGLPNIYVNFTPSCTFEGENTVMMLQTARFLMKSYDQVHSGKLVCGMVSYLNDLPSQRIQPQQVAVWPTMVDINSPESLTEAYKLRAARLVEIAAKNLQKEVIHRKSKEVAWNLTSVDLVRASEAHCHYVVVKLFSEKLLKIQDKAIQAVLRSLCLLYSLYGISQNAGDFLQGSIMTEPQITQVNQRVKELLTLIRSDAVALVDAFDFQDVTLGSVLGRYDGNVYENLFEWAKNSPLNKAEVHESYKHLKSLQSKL
# UniProt P00813: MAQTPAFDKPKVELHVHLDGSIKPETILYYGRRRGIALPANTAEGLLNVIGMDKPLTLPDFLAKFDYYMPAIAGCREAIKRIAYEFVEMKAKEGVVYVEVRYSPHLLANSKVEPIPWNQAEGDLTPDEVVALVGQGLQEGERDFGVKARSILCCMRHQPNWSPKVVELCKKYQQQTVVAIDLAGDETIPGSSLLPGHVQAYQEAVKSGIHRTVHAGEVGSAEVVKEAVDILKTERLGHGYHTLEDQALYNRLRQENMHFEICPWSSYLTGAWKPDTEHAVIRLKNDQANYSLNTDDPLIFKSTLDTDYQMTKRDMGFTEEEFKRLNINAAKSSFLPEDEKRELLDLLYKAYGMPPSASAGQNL
# UniProt P21399: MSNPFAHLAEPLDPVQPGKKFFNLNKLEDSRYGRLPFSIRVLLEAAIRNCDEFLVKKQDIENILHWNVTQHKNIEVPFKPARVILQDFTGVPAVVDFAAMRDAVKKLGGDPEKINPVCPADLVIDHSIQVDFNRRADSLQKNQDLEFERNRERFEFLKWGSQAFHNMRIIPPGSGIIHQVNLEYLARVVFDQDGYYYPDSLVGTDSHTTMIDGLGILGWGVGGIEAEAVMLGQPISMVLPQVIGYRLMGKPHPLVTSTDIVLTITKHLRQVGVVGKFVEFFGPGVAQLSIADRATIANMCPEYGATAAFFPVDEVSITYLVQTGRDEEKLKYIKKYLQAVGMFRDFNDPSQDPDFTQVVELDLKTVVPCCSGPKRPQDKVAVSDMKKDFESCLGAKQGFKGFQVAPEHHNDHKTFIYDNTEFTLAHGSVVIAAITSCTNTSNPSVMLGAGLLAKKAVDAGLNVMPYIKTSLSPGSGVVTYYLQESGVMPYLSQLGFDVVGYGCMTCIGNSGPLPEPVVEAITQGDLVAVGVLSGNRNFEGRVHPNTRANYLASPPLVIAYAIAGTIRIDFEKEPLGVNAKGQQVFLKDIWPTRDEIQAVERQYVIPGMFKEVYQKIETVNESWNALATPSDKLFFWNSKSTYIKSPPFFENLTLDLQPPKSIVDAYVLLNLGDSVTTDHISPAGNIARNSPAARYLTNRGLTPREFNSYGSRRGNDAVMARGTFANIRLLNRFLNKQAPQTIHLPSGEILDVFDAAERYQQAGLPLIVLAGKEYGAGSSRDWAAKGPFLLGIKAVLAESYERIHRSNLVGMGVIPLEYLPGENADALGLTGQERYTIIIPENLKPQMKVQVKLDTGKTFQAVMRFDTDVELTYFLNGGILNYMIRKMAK
# UniProt Q6DHV7: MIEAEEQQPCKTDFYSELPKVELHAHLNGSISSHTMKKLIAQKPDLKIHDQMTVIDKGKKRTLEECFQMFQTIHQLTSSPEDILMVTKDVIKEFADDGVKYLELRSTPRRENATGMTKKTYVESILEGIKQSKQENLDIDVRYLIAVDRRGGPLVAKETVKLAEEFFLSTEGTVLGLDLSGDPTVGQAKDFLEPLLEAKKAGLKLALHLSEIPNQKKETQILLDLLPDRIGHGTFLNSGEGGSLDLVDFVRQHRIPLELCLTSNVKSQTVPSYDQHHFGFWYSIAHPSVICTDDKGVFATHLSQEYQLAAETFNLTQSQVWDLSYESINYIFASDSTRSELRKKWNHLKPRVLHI
# UniProt P53396: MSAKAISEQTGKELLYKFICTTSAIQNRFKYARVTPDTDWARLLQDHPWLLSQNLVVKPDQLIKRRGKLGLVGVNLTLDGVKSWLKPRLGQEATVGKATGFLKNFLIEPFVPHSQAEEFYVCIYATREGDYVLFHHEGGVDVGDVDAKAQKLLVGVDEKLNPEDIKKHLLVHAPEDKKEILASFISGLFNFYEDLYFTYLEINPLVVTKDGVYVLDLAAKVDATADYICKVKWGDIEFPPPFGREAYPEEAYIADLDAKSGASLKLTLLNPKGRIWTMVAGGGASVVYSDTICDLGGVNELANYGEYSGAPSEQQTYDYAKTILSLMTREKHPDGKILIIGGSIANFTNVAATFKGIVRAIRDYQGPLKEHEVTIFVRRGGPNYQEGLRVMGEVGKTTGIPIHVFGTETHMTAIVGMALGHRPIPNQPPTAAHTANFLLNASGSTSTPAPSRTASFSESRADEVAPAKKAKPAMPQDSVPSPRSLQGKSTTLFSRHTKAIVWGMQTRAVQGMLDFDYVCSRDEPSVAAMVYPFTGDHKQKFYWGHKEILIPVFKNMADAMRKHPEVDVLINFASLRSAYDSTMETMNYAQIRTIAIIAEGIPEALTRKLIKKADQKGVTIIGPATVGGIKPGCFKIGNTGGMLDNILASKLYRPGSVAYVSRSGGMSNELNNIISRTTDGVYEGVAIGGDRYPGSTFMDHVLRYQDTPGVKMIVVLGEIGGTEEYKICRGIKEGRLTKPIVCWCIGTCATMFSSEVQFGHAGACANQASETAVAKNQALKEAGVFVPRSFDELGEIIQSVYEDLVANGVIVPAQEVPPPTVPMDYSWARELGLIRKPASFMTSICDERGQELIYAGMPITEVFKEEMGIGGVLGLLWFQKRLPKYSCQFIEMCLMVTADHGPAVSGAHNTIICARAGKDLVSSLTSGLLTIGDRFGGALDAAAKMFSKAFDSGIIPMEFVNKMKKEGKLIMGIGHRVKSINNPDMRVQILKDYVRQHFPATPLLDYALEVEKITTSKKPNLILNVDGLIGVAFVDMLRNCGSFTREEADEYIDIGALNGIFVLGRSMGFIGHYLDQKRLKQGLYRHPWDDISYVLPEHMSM
# This is one part of the list.
# Compound: c1cn2cc(-c3ccc4cn[nH]c4c3)nc(Nc3ccc(N4CCOCC4)cc3)c2n1 [entospletinib]
# Assay: log2 fold change, soluble protein after heating vs DMSO (PISA); higher = thermal stabilisation; K562 cells, 10 uM, 30 min; active = over 0.2 and 3.5 SD of the protein, either way, in both replicates (recomputed)
# Outline: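 Values are thermal stability changes relative to control samples and are taken from duplicates. They are stated as log2 fold changes. Before quantification by TMTpro 16plex LC-MS/MS with equalised channel sums, K562 cells at 2×10^6 cells/mL were treated with 10 μM compound for 30 min, heated in aliquots for 3 min across 48°C-58°C, pooled, extracted in PBS with 0.5% NP-40 at 4°C, and centrifuged at 21,000xg for 90 min to give the soluble supernatant.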
row,Target,log2 fold change
1,ACTR2 (UniProt P61160),inactive: -0.003
2,ABHD5 (UniProt Q8WTS1),inactive: 0.121
3,ACACA isoform 4 (UniProt Q13085),inactive: 0.142
4,ACAT2 (UniProt Q9BWD1),inactive: 0.008
5,ABI1 (UniProt Q8IZP0),inactive: 0.006
6,ABCF3 (UniProt Q9NUQ8),inactive: 0.101
7,ABRAXAS2 (UniProt Q15018),inactive: 0.005
8,ABCC1 (UniProt P33527),inactive: 0.023
9,"ACTB, A0A2R8Y793",inactive: -0.048
10,ACAA1 (UniProt P09110),inactive: -0.013
11,ABCB10 (UniProt Q9NRK6),inactive: -0.031
12,ACSS1 (UniProt Q9NUB1),inactive: -0.003
13,"ACTB, A0A2R8YEA7",inactive: -0.049
14,ACTL6A (UniProt O96019),inactive: 0.006
15,ABHD17B (UniProt Q5VST6),inactive: 0.099
16,ACBD3 (UniProt Q9H3P7),inactive: 0.027
17,AASDHPPT (UniProt Q9NRN7),inactive: 0.008
18,ABI2 (UniProt Q9NYB9),inactive: 0.007
19,ACTR6 (UniProt Q9GZN1),inactive: -0.035
20,ACSS2 isoform 2 (UniProt Q9NR19),inactive: -0.014

row,Target,log2 fold change
1,ABRAXAS1 (UniProt Q6UWZ7),inactive: 0.077
2,ACTN4 (UniProt K7EJH8),inactive: -0.086
3,ADAMTSL4 isoform 3 (UniProt Q6UY14),inactive: 0.026
4,ACTA1 (UniProt P68133),inactive: -0.039
5,ACTG1 (UniProt K7EM38),inactive: 0.02
6,ACOT8 (UniProt O14734),inactive: -0.023
7,ABCF1 (UniProt Q8NE71),inactive: 0.115
8,AAAS (UniProt Q9NRG9),inactive: -0.022
9,ACAA2 (UniProt P42765),inactive: 0.018
10,ACTR1A (UniProt P61163),inactive: 0.052
11,ABLIM1 (UniProt O14639),inactive: 0.008
12,AAMDC (UniProt Q9H7C9),inactive: -0.017
13,ACY1 (UniProt Q03154),inactive: 0.016
14,ADAR isoform 4 (UniProt P55265),inactive: -0.164
15,ACTN4 (UniProt O43707),inactive: -0.011
16,ABCA7 (UniProt Q8IZY2),inactive: -0.065
17,ACAD8 (UniProt Q9UKU7),inactive: -0.031
18,ACOT13 (UniProt Q9NPJ3),inactive: 0.042
19,ACOX1 isoform 2 (UniProt Q15067),inactive: -0.04
20,ADAM9 (UniProt Q13443),inactive: 0.01

row,Target,log2 fold change
1,ADA (UniProt P00813),inactive: 0.06
2,ABHD10 (UniProt Q9NUJ1),inactive: 0.037
3,ADAT2 (UniProt Q7Z6V5),inactive: -0.063
4,ABCC4 (UniProt O15439),inactive: -0.006
5,ACADS (UniProt P16219),inactive: -0.053
6,ADAD1 (UniProt Q96M93),inactive: -0.119
7,ACYP2 (UniProt P14621),inactive: 0.273
8,ABHD13 (UniProt Q7L211),inactive: -0.052
9,"ACAT1, A0A5F9ZHJ0",inactive: -0.147
10,ACADSB (UniProt P45954),inactive: 0.018
11,A2ML1 (UniProt A8K2U0),inactive: -0.231
12,ABCF2 isoform 2 (UniProt Q9UG63),inactive: 0.062
13,ACTC1 (UniProt P68032),inactive: 0.009
14,ACO1 (UniProt P21399),inactive: -0.003
15,ADAL (UniProt Q6DHV7),inactive: 0.002
16,ACTR10 (UniProt Q9NZ32),inactive: -0.038
17,ABCD3 (UniProt P28288),inactive: -0.023
18,ACYP1 (UniProt P07311),inactive: 0.123
19,ACLY (UniProt P53396),inactive: -0.066

# Already shown: entries from further up.
row,Target,log2 fold change
20,ADAM9 (UniProt Q13443),inactive: 0.01
1,ADA (UniProt P00813),inactive: 0.06
